These results are taken from PMC4741485.

Chains of the proteins cited; added tags and fusions are not shown.
UniProt Q00987: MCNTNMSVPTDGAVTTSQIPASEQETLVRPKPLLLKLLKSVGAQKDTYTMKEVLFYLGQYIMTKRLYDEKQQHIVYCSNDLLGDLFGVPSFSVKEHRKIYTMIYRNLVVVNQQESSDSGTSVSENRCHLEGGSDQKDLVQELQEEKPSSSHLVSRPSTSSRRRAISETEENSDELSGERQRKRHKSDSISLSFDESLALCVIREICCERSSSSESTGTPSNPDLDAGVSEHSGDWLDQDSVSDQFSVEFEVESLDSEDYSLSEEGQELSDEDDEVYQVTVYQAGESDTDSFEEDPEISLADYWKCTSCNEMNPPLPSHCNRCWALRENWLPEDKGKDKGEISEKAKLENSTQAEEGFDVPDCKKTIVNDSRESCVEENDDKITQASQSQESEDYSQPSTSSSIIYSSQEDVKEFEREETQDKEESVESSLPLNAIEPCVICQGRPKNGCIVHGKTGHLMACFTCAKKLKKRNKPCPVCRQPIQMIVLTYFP

Assay [1] deals with p53, endogenous (human (endogenous in U2OS)) (UniProt P04637). Put plainly: co-IP; endogenous proteins in U2OS lysate; precipitated with anti-USP7, anti-Mdm2, anti-p53 or control IgG (overnight 4 °C, protein G magnetic beads); WB; in Figure 5C with control or STIP shRNA and 20 uM MG132 for 4 h.
Assay [2] has as its target USP7 (ubiquitin-specific protease 7), endogenous (human (endogenous in U2OS and H1299)) (UniProt Q93009). The description is as above.
In assay [3] the target is Mdm2, endogenous (human (endogenous in U2OS)) (UniProt Q00987). The assay is described as above.
A further assay deals with GFP-USP7 full-length (UniProt Q93009). Description: co-IP; lysates of U2OS cells transfected with GFP-USP7 constructs were incubated with GST or GST-STIP, then immunoprecipitated with anti-GFP antibody; blotted with anti-STIP, re-probed with anti-GFP; only the binder purified.

No constants are given. Whether binding was seen depends on the method and setting. In cells and extracts the contact can be indirect. Some binding calls cover weakened binding; strength is not graded here. For some of these results: Tags and fused reporters may be left off the sequences shown.

B1: STIP (sip1/tuftelin interacting protein), endogenous (protein, UniProt Q9UBB9 1-837)
chain: MSLSHLYRDGEGRIDDDDDERENFEITDWDLQNEFNPNRQRHWQTKEEATYGVWAERDSDDERPSFGGKRARDYSAPVNFISAGLKKGAAEEAELEDSDDEEKPVKQDDFPKDFGPRKLKTGGNFKPSQKGFAGGTKSFMDFGSWERHTKGIGQKLLQKMGYVPGRGLGKNAQGIINPIEAKQRKGKGAVGAYGSERTTQSMQDFPVVDSEEEAEEEFQKELSQWRKDPSGSKKKPKYSYKTVEELKAKGRISKKLTAPQKELSQVKVIDMTGREQKVYYSYSQISHKHNVPDDGLPLQSQQLPQSGKEAKAPGFALPELEHNLQLLIDLTEQEIIQNDRQLQYERDMVVNLFHELEKMTEVLDHEERVISNLSKVLEMVEECERRMQPDCSNPLTLDECARIFETLQDKYYEEYRMSDRVDLAVAIVYPLMKEYFKEWDPLKDCTYGTEIISKWKSLLENDQLLSHGGQDLSADAFHRLIWEVWMPFVRNIVTQWQPRNCDPMVDFLDSWVHIIPVWILDNILDQLIFPKLQKEVENWNPLTDTVPIHSWIHPWLPLMQARLEPLYSPIRSKLSSALQKWHPSDSSAKLILQPWKDVFTPGSWEAFMVKNIVPKLGMCLGELVINPHQQHMDAFYWVIDWEGMISVSSLVGLLEKHFFPKWLQVLCSWLSNSPNYEEITKWYLGWKSMFSDQVLAHPSVKDKFNEALDIMNRAVSSNVGAYMQPGARENIAYLTHTERRKDFQYEAMQERREAENMAQRGIGVAASSVPMNFKDLIETKAEEHNIVFMPVIGKRHEGKQLYTFGRIVIYIDRGVVFVQGEKTWVPTSLQSLIDMAK
On to B1, for which the binding entry in assay [1], in assay [2] and in assay [3] was “binds” throughout.

B2: GST-STIP (protein, UniProt Q9UBB9 1-837)
chain: B1 chain
As for B2, in the assay with GFP-USP7 full-length, the binding result is reported as “binds”.
